Values of other authors in patent US4571403A, “Antianginal medicated compound” (Institut Organicheskoi Khimii Imeni N.D. Zelinskogo …, priority 1984, dated 1986).
For at least one compound, name, drawing or mass did not settle the structure.

System: myocardium / blood circulation
Settings: prior art; cited from earlier work

For O=[N+]([O-])OCC(CO[N+](=O)[O-])O[N+](=O)[O-] [Trinitroglycerol, trinitroglycerol], the “blood flow / blood supply of ischemized zones of myocardium” value is listed as “selectively increases blood flow in endocaridal zones of ischemized myocardium”, the “contractability of the heart (inotropic effect)” value is listed as “no substantial intensification of contractability of the heart” and the “general coronary blood flow” value is listed as “increases the general coronary blood flow”. The systemic arterial pressure was “insignificant hypotension of the systemic arterial pressure” and the “vascular component of the acute (primary) pain reaction” value was “selectively suppresses the vascular component of the acute (primary) pain reaction”.
